In PubChem BioAssay AID1508600 (Functional Genomics Laboratory (NCATS/FGL), 2020):
Hit rate of the full screen: of about 53,000 sequences, about 3,700 (7%) were called active.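 How the source made its calls: active means gene knockdowns whose robust z-score for IL-1 alpha signal is at least 2 or at most -2, so actives lie on both sides; inactive means the rest.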 The list shows a part of the results.

Experiment: Components of the Cytosolic LPS Sensing Pathway: Gene Identification via Genome-wide siRNA Screen;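 further: robust z of the log signal after scaling to non-targeting control siRNA wells of the plate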
Conditions: RAW264.7 macrophages, IL-1a HTRF, actives lie on both sides, screened at 100 nM (by protocol), cells primed 5 h with Pam3CSK4 first
Procedure, shortened: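 Mouse macrophage line RAW264.7 is transfected with siRNA (100 nM final), grown 48h, primed with TLR ligand Pam3CSK4 5 h and given intracellular LipidA 24 h. IL-1a in supernatant is read by HTRF and viability by luminescence.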

Sequence | z-score
GGUUUUCAAAGUCUUUUACTT against Pptc7 | inactive: 0.853
GGAAAUCAAGAAAGCACAGTT against Guk1 | inactive: 0.244
GGCAGUCAAAUUUAUAGUATT against Ckap4 | inactive: 0.32
GCUAUCUAGAGCCAAGAGCTT against Bahcc1 | active: 2.27
GCACCCUACCUGCUAAUGUTT against Slitrk1 | active: 3.59
GGAAUUGGAUUCAGUUUACTT against Ppp3ca | inactive: 1.97
GCGACAUCUCUCAAGCUUATT against Carmil3 | inactive: 0.555
GGCAAUAUCCGGUUUUUAGTT against Sema6d | inactive: 0.551
GGCAGCAUGAAAGAAAAAATT against Eme1 | inactive: -0.307
GCGAGUGAAAAACCAAGGCTT against Loxl1 | inactive: -0.797
GCUCAGACAAGAAUUGCUATT against Specc1 | inactive: -0.612
GGAAUUCUCCAGAAAGCUCTT against Atrip | inactive: -0.855
GGCCAUGUGGUUCCUGCUUTT against Scnn1b | inactive: -1.67
GGACAUUUUUAUUAGUGGATT against Gtpbp8 | inactive: 1.04
CGUAAAACUCUUAGGCAUGTT against Npm1 | inactive: 1.13
GGAAUUCAAGGAUCGAUCUTT against Tnfrsf19 | inactive: -0.188
GGUCACGACUCUUCAUGAUTT against Nrl | inactive: -1.79
CGACAAACCCAAGAUCACGTT against Slc32a1 | inactive: -0.439
GCCAAGAAGUCGGUGGACATT against Cebpa | inactive: -0.399
CCUGCUCUUCCGAUGCUCATT against Chkb | inactive: 0.87
GGACGUAUCCAUCACUGUUTT against Scn3b | inactive: -0.897
GUACCUCAUUUUUAGCACATT against Vmn1r18 | inactive: 0.629

Sequence | z-score
GGGAGCUUCCAUGUUGACATT against Uqcr11 | inactive: 0.13
GGUCUACAUUCGGAUAAAATT against Snx29 | inactive: 0.469
CGUUCCGAAGCAACAUCGUTT against Slc9a4 | inactive: 0.319
GGUUUCACCAGCCAAUGUCTT against Ltk | inactive: 0.439
GGAAAUAAGAGAGAGUACATT against Pcbp2 | inactive: -0.694
GGAAAAAGCGGAAAUUCAGTT against Pgbd5 | inactive: -0.276
GGAAAAGGUAGGGACCUAUTT against Cramp1l | inactive: -1.13
GCAGCAUGUUCGUCUUUGGTT against Lztr1 | inactive: -1.77
CGUGUACGUCAUGGUAUUUTT against Map2k1 | inactive: 0.232
GGAUUGUUCGAGCUAAAAATT against Tnfsf10 | inactive: 1.45
GGAAUUAGACAUUCGAACATT against Rnf20 | inactive: 0.0635
GGUAGCAUUAUGGGUGAGGTT against Pik3ip1 | inactive: -0.0677
CCUAUGUGCGUUCCAAGCATT against Eif5b | inactive: -0.432
GCUCGAUUGACCUCAUUCATT against Rhbdf2 | active: -2.45
GGCCACUAGUAAGAAGAAATT against Usp19 | inactive: 1.53
GGAAAUACGAAAAGUUGUATT against Tsn | inactive: -0.928
GGCCACGUUUCUCUUCACCTT against Nyx | inactive: -1.12
GGAGUUGCUUAUCUAUGAATT against Cpsf1 | inactive: -0.138
CCUAACACCAGUUGUGUUUTT against Pbx2 | inactive: 0.25
CCAGGAGUACAAACACUAUTT against Stap1 | inactive: 0.493
GGCCAAAACCUAUGAAUUCTT against Cbx8 | inactive: -0.293
GACUCUGUGGGUUCAAAAATT against Antkmt | inactive: -0.237

Sequence | z-score
GGAUGGUAGAGUCUCUUAUTT against Olfr414 | inactive: 1.64
GGAAGUCUCGAUAUCAUUCTT against Cd300lg | inactive: 0.565
GGAUCUCGAAAGAACUGAUTT against Hoatz | inactive: -1.49
CCUACAGCCACCUAAUAGATT against Olfr1196 | inactive: -0.346
GGACCAGUUUAUCCAGCACTT against Mc3r | inactive: -0.699
GCUAGAAUCAUGGCAAAUATT against 9530002B09Rik | inactive: -1.3
GGUGGUUUAUGAAAUACCATT against Napepld | inactive: 0.916
GGUAUCACGAGCAUUCUCATT against Rrh | inactive: -0.845
GCACUUUCAGCGGUCUCAUTT against Card14 | inactive: -0.789
CCGUAGACCCGGUUUAUGATT against Pxylp1 | inactive: 0.316
GCGCAAGGAAUACAUGGUGTT against Rnasek | inactive: -0.482
GGUAUACGUGGACAACAGCTT against Esr1 | inactive: -0.975
GCUAUACCAGGAGGUAGAUTT against Arhgef40 | inactive: -0.504
CCACGCAAAAGAAUAUAAGTT against Mtss1 | inactive: 0.464
CGCAGAGAUUGUGCGGACUTT against Myg1 | inactive: 0.245
GGGAUUGAAAGAAGAAAAGTT against 1700029P11Rik | inactive: -0.952
GCCUGUCAUUAAUCUGACATT against Kazn | inactive: -1.61
GCAAAAAACUACUUUUACCTT against Chrna1 | inactive: 0.103
GGAUGUUUUUGAACUACAUTT against Brdt | inactive: 1.51
GGUAUGGAAGAAGAAGCGCTT against Phlda2 | inactive: -0.584
CCUAGAGAUGUCAGUACUATT against Tas2r123 | inactive: -0.264
GGGUUCAAAUAGUUUACCUTT against Tmem33 | inactive: 0.156

4 records drawn at random from the list so far, as already listed:
Sequence | z-score
GGUGGUUUAUGAAAUACCATT against Napepld | inactive: 0.916
GGUAUGGAAGAAGAAGCGCTT against Phlda2 | inactive: -0.584
GGGAUUGAAAGAAGAAAAGTT against 1700029P11Rik | inactive: -0.952
GCAAAAAACUACUUUUACCTT against Chrna1 | inactive: 0.103

The results go on.

Sequence | z-score
CCCUAUUUUAACCGUGUUATT against Vrtn | inactive: -1.18
GGUUAUGGCCUGUAUUAGATT against Hsd17b13 | inactive: 1.06
GGUGAAAGACCAAAGAAACTT against Gpatch1 | inactive: -1.12
GGGAUAUUGUUUUUUACAGTT against Tmem50b | inactive: -0.921
GGAUGGAUCGUUUCUUAUUTT against Blnk | inactive: 0.7
GGAUGUGCCUGCCACUAUUTT against Cyp1b1 | inactive: 1.15
CGGCUCACAAAUAUACAGUTT against Pira1 | inactive: -0.12
GGCAAAAUAGAGAAAUACATT against Lima1 | active: 2.37
GCCUGAUCGAUACGUGAUCTT against Naaladl1 | active: 3.35
CCUGAUGCCAGAAUCUAAGTT against Ermap | inactive: 0.618
GCCUGAACUGGCUAGAAAUTT against Psmg2 | inactive: -0.19
GGAGCUUCUCAUGACCUUUTT against Mettl21e | inactive: 0.307
GGAGGAUUCAUGCUUUGUUTT against Morc2b | inactive: 0.238
GCGCUAGAAGGCCAGAUAUTT against Orm3 | inactive: -0.155
CGCACACAGUCGUAUGUACTT against Ryr1 | inactive: -1.21
GGACUAGAAUGUGACCUUGTT against Anks6 | inactive: -1.46
GCCCUGAAAAACAUGCAACTT against Tmco3 | inactive: 0.469
GCUUAUAGUUCAGUUUUUGTT against Ints8 | inactive: 0.835
GGAAACAAUUCAUGAGCAUTT against Ints13 | inactive: 1.49
CCGACUGGGCUCUUUUUACTT against Dbnl | inactive: 0.651
GCUAUACAUCAUGGUAUCCTT against Dlx1 | inactive: -0.632
GCAGGUGCCUUCAAAAACCTT against Pm20d2 | inactive: -0.926

A section from further up, for reference:
Sequence | z-score
GGGAUAUUGUUUUUUACAGTT against Tmem50b | inactive: -0.921
GGAUGGAUCGUUUCUUAUUTT against Blnk | inactive: 0.7
GGAUGUGCCUGCCACUAUUTT against Cyp1b1 | inactive: 1.15

Next entries follow:

Sequence | z-score
GGGAAAUGGAAAGCAUUCUTT against Olfr374 | inactive: 1.41
GGUUCUGACAGACAAAAUUTT against Luc7l3 | inactive: -0.379
GGAAUGGAAACAGAGUUAUTT against Zfp641 | inactive: 0.342
GGAAAUGAAGGUUGCAAUGTT against Olfr1317 | inactive: 0.523
GGAUCUUAUUACUUCAAUGTT against Slc44a1 | inactive: 0.204
GGGAUGGAGGAGGAGCUUATT against Bad | inactive: 0.86
GCAUCAGAUGCGUUUGCUUTT against Blm | inactive: -0.242
GGUAAAGACAAGAUUAAAGTT against Cyp39a1 | inactive: -0.308
GCCAUAUCGCUAAAAUUCUTT against Hoxa10 | inactive: 0.0376
GGGAAACAUUUGAAAGCCUTT against Mpp4 | inactive: -0.64
GGAAUACAUCGAGUAUCUCTT against Xab2 | inactive: -1.43
GCUAGAGUGACUAUUUUACTT against Acta2 | inactive: 1.56
GGAAACCUAUUUCAUAUAGTT against Pik3cg | inactive: -0.234
GCAAACCUUUGUUCAUUCCTT against Prnp | inactive: 0.0629
GCAUGUCCACGUUAGAAUCTT against Fbxw7 | inactive: -1.08
GCUCAUUGAGUACAAGACCTT against Ndufs2 | inactive: 1.76
CGAUUGGUUGUUGUAGACATT against Abhd11 | active: -2.56
GGACUUCUUAAUGUUUUACTT against Phf11a | inactive: 0.398
CGGUUUACAUUCCUGACUUTT against Plekho2 | inactive: 1.42

Copied from the list:
z-score, GGGAUGGAGGAGGAGCUUATT against Bad is entered as inactive: 0.86
z-score, GCAUGUCCACGUUAGAAUCTT against Fbxw7 is entered as inactive: -1.08
